Experimental data published in US20260035355A1, “COMPOUND, PHARMACEUTICAL COMPOSITION COMPRISING SAME, AND USE THEREOF” (SHENZHEN ZHONGGE BIOLOGICAL TECHNOLOGY CO., LTD., priority 2022, published 2026).

Experiment: Evaluation of cell membrane permeability
Type: in vitro ADME
Conditions: transport buffer (HBSS+BSA), 37° C.
Procedure: The test compounds were diluted from 10 mM stock solutions to a concentration of 10 μM using the transport buffer (HBSS+BSA) and applied to the apical or basolateral side of the cell monolayer. After the incubation at 37° C., 5% CO2 and 95% relative humidity for 120 minutes, the permeability of the test compounds in the A to B direction or the B to A direction was dually determined. In addition, the efflux ratio (Papp B to A/Papp A to B) of each compound was determined. The test substances and reference substances were quantitatively analyzed by the LC-MS/MS method based on the analyte/IS peak area ratio.

What does the source list for `CC(C)NCC(O)COc1ccc(CC(N)=O)cc1` (centres unmarked) [Atenolol]?
Papp A→B at 120 min, 10 μM: 0.41 ×10⁻⁶ cm/s; Papp B→A at 120 min, 10 μM: 0.61 ×10⁻⁶ cm/s
